Here are results for 12 targets from the supplement of paper PMC12595434, “Development of retinoid nuclear receptor pathway antagonists through targeting aldehyde dehydrogenase 1A3” (iScience, 2025).

Amino acid sequences for entries named in this document (tags omitted). A change or cut given only in a name is not applied to a line headed by its entry.
UniProt Q9Y580: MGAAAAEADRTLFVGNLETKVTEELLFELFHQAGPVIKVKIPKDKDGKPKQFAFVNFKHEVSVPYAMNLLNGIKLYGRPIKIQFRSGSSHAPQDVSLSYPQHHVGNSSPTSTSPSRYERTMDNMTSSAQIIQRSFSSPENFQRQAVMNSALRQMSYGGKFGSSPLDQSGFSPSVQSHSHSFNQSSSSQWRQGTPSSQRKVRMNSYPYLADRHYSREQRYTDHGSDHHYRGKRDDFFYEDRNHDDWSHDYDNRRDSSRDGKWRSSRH
UniProt Q9Y5Y2: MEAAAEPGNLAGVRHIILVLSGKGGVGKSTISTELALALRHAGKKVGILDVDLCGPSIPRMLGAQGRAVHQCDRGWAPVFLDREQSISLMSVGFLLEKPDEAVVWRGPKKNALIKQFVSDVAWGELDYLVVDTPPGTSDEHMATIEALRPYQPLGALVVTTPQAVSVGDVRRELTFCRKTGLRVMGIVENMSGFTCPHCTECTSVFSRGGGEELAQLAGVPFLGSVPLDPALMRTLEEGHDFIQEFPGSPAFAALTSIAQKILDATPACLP
UniProt Q9Y657, whole entry: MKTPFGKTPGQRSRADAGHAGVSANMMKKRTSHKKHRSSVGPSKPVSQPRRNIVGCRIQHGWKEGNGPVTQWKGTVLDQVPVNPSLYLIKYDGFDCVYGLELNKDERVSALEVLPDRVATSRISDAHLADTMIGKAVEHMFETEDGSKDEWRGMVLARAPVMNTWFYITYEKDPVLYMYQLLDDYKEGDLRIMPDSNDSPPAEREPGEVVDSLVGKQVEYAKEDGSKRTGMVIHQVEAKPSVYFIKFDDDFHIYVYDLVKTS
UniProt Q9Y6D9: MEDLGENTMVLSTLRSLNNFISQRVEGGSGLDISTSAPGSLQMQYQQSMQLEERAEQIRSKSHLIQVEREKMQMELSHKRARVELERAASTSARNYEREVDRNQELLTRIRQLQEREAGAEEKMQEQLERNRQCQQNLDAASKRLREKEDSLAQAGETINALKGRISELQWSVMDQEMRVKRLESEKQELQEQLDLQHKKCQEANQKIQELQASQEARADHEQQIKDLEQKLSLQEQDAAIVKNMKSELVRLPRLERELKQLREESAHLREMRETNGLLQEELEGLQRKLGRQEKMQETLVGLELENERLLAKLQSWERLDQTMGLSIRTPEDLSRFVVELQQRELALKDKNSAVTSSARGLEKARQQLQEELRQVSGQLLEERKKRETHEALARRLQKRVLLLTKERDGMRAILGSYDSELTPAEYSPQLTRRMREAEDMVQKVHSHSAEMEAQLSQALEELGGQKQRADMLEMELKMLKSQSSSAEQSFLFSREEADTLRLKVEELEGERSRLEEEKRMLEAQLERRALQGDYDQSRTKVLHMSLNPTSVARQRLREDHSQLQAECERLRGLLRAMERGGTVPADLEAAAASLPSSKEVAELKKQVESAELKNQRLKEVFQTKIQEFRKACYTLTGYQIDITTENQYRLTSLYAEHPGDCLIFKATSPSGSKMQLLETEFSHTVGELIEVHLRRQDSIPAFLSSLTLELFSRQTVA
UniProt Q9Y2S7: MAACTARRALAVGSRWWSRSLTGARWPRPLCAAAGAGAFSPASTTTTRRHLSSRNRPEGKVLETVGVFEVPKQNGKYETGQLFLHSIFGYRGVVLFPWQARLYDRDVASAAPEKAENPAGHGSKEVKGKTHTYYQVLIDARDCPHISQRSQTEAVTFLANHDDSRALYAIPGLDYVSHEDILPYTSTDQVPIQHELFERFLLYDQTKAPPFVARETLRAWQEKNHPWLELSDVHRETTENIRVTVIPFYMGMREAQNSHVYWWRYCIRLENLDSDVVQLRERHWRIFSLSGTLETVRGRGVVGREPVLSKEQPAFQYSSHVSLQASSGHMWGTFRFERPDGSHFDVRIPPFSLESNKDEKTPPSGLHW
UniProt Q9Y2Q3: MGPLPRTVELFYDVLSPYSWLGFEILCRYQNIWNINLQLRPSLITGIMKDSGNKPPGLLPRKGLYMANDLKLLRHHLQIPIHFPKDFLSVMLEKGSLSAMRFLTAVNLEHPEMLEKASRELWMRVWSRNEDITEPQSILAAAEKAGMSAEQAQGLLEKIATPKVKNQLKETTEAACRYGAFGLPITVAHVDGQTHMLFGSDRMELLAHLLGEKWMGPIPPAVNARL
UniProt Q9Y3C6: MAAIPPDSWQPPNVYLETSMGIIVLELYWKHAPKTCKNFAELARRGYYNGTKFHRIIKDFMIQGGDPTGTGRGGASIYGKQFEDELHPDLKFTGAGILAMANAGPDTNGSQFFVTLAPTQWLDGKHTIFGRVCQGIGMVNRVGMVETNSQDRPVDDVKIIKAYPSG
UniProt Q9Y2T2: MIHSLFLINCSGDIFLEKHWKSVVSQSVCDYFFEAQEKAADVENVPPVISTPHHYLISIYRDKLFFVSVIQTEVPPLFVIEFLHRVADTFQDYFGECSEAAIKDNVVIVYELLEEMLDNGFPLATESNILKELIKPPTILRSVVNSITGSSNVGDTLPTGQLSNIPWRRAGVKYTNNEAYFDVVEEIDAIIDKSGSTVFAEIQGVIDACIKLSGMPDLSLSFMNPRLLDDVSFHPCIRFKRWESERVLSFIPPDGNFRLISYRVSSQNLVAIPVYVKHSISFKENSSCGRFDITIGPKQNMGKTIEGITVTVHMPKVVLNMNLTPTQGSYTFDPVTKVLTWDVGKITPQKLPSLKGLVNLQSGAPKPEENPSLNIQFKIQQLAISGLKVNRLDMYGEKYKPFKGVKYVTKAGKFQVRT
UniProt Q9Y6X5: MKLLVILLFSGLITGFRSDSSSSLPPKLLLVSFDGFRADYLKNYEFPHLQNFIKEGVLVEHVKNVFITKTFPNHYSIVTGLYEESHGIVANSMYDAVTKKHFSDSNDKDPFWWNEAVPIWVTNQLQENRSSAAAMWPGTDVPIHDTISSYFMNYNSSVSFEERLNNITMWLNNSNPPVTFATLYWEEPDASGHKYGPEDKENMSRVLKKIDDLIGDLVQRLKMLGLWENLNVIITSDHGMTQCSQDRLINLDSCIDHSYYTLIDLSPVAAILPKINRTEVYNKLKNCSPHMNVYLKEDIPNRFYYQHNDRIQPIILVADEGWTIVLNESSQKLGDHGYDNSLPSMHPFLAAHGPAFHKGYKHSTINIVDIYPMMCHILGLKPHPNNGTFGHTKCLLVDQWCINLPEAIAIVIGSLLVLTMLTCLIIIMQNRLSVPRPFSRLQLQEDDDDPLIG
UniProt Q9Y5S1: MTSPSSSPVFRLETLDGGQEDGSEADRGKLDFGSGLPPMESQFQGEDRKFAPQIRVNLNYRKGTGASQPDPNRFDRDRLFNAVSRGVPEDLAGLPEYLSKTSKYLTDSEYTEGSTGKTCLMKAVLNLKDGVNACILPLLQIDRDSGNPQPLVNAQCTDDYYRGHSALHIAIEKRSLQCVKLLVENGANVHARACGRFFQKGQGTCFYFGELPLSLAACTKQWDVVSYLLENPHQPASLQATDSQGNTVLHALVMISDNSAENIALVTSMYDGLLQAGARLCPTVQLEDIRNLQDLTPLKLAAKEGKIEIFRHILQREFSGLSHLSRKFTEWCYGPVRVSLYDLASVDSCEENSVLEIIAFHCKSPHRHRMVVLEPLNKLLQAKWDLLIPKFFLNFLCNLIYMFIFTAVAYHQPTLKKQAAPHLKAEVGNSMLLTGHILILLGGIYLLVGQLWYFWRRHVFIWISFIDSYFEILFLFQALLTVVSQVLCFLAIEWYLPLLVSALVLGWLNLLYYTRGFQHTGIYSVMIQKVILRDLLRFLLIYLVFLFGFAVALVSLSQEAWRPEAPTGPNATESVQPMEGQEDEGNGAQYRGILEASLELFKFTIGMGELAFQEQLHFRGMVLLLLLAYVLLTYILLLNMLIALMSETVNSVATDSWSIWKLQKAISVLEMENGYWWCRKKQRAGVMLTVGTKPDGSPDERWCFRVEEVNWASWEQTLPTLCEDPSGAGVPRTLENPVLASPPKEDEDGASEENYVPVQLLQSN
UniProt Q9Y4D7: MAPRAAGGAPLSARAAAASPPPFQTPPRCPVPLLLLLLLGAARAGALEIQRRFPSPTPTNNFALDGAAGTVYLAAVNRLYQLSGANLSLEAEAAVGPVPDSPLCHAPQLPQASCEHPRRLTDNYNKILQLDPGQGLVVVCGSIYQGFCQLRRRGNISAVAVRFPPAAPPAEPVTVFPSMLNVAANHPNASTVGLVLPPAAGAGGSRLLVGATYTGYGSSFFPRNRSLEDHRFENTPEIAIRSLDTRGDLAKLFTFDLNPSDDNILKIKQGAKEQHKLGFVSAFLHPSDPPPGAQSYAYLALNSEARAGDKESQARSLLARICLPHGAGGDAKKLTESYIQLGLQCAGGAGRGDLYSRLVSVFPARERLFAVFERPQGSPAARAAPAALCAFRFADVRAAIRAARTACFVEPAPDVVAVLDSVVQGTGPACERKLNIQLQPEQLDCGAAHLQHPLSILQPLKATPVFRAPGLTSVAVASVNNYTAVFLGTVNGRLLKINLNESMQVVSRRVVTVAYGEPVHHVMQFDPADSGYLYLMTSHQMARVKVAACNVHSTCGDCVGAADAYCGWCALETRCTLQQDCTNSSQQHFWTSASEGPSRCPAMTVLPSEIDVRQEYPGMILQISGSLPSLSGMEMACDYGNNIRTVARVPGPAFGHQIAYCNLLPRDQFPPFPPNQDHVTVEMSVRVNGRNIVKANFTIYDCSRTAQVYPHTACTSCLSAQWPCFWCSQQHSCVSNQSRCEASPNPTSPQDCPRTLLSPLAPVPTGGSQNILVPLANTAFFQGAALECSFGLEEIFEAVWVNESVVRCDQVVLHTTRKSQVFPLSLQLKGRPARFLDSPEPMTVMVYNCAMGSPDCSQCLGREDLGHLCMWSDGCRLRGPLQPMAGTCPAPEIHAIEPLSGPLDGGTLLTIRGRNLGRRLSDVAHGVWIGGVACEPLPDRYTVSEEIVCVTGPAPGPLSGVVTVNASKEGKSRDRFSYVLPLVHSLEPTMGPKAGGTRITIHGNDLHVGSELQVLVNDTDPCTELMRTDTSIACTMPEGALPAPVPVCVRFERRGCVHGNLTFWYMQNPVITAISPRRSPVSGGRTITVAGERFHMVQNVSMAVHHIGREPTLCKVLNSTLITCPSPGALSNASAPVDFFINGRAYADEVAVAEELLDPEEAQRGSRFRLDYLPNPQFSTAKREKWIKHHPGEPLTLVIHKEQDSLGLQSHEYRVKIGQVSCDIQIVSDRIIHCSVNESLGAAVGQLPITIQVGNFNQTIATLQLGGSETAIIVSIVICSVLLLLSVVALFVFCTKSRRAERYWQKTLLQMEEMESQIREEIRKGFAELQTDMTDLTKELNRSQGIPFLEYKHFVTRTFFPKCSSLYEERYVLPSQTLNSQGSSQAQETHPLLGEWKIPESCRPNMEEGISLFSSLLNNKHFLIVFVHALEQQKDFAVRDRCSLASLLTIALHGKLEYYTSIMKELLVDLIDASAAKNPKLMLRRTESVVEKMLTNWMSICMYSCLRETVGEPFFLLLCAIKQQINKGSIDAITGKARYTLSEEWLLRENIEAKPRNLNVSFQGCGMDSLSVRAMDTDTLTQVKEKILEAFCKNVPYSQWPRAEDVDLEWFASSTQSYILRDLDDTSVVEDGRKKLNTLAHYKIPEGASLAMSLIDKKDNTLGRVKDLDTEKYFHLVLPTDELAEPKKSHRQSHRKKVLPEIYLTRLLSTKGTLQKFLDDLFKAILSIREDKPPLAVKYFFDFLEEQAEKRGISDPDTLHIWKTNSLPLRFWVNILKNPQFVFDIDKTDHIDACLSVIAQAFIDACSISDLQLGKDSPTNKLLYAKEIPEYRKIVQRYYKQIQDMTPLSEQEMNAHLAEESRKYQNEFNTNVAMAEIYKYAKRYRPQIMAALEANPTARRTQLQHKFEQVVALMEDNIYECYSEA
UniProt Q9Y3A2: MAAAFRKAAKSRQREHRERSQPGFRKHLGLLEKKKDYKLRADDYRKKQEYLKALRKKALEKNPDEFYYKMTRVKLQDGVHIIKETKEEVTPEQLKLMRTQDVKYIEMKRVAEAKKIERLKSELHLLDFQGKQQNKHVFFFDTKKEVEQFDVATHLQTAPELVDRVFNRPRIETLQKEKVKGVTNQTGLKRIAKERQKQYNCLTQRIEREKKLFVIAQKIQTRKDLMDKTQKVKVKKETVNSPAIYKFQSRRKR

Compound in this experiment: CCc1cnccc1C(=O)Nc1cc2c(cc1F)NC(=O)CC2
The experiment in a line: melting temperature shift (DMSO Tm minus MBE1-treated Tm) in cellular thermal proteome profiling; higher = less thermal stabilization by MBE1 (negative = stabilized by MBE1). To be noted: A375.

The list shows a part of the results. The data scatter; read single values as rough.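 Tm was set to 64 °C where no melting was found, and many curves are irregular.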

Take RBM7 (UniProt Q9Y580): the melting temperature shift is -0.851 °C (MBE1 concentration: 100 nM) and 0.409 °C (MBE1 concentration: 1 uM).
The matching figures for NUBP2 (UniProt Q9Y5Y2): -1.94 °C and -2.82 °C.
Turning to SPIN1 (UniProt Q9Y657), the melting temperature shift by setting is: (MBE1 concentration: 100 nM) -0.476 °C; (MBE1 concentration: 1 uM) 0.154 °C.
In the case of MAD1L1 (UniProt Q9Y6D9), the melting temperature shift runs as follows: (MBE1 concentration: 100 nM) 0.0705 °C; (MBE1 concentration: 1 uM) -0.179 °C.
On to POLDIP2 (UniProt Q9Y2S7), for which the melting temperature shift was 1.21 °C (MBE1 concentration: 100 nM) and 0.647 °C (MBE1 concentration: 1 uM).
The corresponding values for GSTK1 (UniProt Q9Y2Q3) are -0.0122 °C and 0.403 °C.
PPIL1 (UniProt Q9Y3C6): the melting temperature shift is -0.573 °C (MBE1 concentration: 100 nM) and 0.0427 °C (MBE1 concentration: 1 uM).
Turning to AP3M1 (UniProt Q9Y2T2), the melting temperature shift reads like this: (MBE1 concentration: 100 nM) 1.37 °C; (MBE1 concentration: 1 uM) 0.385 °C.
The matching figures for UniProt Q9Y6X5: -6.72 °C and 2.9 °C.
The matching figures for UniProt Q9Y5S1: -0.899 °C and 0.483 °C.
The matching figures for PLXND1 (UniProt Q9Y4D7): 1.89 °C and 0.989 °C.
As to UniProt Q9Y3A2, the melting temperature shift (MBE1 concentration: 100 nM) was 1.03 °C and the melting temperature shift (MBE1 concentration: 1 uM) amounted to 0.0128 °C.
